Laboratory results from patent US20030138894A1.
No constants are given. Whether binding was seen depends on the method and setting. Some results given as binding are weak or reduced against the parent protein; the word gives no strength.

By UniProt entry, the sequences of proteins in these tests, tags left out. Residues count along the entry.
UniProt Q9BYF1, residues 18-740: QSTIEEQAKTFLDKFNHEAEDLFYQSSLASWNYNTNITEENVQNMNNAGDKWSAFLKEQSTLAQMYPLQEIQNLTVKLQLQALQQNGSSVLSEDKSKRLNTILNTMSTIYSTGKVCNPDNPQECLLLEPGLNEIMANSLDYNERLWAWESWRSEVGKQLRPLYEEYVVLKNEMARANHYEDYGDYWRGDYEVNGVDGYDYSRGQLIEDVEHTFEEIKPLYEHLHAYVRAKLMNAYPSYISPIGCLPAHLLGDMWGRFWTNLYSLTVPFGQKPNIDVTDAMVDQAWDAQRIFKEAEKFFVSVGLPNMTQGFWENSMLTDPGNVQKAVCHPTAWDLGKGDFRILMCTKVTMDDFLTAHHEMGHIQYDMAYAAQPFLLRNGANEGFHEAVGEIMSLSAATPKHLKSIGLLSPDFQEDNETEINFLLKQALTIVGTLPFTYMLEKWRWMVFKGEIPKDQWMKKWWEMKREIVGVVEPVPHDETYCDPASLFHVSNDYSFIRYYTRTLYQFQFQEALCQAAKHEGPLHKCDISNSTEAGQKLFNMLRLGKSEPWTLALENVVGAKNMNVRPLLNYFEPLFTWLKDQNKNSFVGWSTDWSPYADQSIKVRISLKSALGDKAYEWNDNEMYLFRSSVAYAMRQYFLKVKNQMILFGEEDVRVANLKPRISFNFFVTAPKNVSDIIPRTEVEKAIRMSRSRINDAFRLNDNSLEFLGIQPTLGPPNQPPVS

These binders were tested against FLAG-tagged ACE-2 target (human) (UniProt Q9BYF1) (assay: phage ELISA on FLAG-ACE-2).

Q: GFTCSPIRMFPWFRCDLG [ACE-2 binding polypeptide …] was tested. Which binding did it give?
A: binds

Q: How did the binding turn out when DDMCRWYPFASFYMCLF [ACE-2 binding polypeptide …-] was run?
A: binds

Q: Which binding does the source give for PQFCFEWEPCF [ACE-2 binding polypeptide …--] here?
A: binds
